The list shows a part of the results.
Columns and labels:
Assay in all cases: log2 fold change, soluble protein after heating vs DMSO (PISA); higher = thermal stabilisation; K562 cells, 10 uM, 30 min; active = over 0.2 and 3.5 SD of the protein, either way, in both replicates (recomputed)
[1] = compound: COC1=CC=C(C=C1)CN2C=CC3=C2C=C(C=C3)C(=O)NO
Procedure, shortened: (§1)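 K562 cells at 2×10^6 cells/mL were given 10 μM compound for 30 min. Aliquots then went through 3 min of heating across 48°C-58°C, were pooled, and were extracted in PBS with 0.5% NP-40 at 4°C, and the supernatant after 21,000xg for 90 min was quantified by TMTpro 16plex LC-MS/MS with channel sums equalised. Thermal stability relative to control samples, from duplicates, is given as log2 fold change.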

Protein sequences, listed by entry. Tags and fused reporters are not part of them. Lines headed by an entry give the natural chain unless they say otherwise; changes in a name come on top.
UniProt Q9Y3D6: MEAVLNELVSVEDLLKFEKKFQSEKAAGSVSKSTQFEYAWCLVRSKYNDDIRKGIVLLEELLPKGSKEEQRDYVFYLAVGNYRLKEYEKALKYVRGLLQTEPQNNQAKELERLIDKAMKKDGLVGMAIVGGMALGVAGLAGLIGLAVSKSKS
UniProt Q00688: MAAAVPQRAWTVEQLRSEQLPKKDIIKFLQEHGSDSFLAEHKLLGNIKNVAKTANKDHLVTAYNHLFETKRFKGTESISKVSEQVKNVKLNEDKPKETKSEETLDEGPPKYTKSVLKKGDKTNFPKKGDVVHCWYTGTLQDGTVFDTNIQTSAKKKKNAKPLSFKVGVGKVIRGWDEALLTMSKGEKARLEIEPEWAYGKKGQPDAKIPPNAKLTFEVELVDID
UniProt Q9Y680: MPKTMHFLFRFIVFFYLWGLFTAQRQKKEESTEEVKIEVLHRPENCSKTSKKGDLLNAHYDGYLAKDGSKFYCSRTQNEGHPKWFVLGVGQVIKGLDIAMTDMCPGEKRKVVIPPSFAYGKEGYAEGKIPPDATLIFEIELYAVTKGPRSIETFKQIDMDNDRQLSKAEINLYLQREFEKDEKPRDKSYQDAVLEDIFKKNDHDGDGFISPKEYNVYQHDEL
UniProt O75955: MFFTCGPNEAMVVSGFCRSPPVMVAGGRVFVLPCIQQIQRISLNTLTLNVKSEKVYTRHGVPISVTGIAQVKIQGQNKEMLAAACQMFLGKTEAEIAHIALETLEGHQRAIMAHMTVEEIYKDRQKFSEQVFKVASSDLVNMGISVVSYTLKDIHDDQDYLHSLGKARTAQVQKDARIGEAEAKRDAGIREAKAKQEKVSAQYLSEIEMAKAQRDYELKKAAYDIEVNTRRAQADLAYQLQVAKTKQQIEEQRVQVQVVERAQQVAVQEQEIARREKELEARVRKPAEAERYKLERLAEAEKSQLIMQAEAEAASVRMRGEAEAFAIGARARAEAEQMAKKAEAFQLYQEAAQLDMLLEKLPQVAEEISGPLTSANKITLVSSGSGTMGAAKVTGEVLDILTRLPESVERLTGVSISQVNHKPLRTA
UniProt P62942, whole entry, looked up: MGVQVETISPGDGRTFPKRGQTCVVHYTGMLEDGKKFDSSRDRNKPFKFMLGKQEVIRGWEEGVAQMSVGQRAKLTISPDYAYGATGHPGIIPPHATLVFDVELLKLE
UniProt Q13045: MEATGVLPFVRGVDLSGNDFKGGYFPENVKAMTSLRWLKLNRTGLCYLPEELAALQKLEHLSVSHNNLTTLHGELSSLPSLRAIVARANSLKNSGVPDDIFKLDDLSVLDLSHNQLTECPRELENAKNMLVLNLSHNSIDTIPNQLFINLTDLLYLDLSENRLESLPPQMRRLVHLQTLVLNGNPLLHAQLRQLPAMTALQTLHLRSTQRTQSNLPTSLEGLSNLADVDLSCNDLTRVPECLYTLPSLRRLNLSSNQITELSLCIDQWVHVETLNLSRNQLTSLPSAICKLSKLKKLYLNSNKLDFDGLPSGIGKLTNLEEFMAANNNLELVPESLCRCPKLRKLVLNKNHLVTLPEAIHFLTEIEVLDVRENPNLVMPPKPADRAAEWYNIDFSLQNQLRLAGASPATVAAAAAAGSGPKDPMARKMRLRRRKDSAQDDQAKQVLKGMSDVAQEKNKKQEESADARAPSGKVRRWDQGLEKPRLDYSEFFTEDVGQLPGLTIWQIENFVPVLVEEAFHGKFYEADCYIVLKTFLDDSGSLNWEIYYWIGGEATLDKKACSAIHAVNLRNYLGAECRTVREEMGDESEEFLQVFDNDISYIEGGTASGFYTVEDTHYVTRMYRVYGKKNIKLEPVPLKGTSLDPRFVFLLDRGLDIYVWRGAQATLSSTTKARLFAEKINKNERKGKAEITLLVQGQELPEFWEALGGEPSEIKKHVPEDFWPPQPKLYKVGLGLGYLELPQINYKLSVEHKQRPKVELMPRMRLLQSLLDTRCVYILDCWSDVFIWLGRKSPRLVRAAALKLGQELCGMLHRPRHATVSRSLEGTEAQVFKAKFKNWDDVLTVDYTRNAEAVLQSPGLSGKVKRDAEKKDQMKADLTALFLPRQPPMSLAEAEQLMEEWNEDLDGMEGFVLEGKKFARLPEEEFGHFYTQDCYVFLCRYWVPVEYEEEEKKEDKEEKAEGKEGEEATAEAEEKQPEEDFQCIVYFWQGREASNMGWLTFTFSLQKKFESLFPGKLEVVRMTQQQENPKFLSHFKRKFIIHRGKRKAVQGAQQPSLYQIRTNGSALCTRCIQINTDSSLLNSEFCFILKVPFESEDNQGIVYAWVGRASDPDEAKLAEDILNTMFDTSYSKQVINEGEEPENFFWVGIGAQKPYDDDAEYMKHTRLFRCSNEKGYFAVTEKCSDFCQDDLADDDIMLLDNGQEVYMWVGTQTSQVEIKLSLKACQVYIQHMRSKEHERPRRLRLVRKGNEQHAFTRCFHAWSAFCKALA
UniProt Q658Y4: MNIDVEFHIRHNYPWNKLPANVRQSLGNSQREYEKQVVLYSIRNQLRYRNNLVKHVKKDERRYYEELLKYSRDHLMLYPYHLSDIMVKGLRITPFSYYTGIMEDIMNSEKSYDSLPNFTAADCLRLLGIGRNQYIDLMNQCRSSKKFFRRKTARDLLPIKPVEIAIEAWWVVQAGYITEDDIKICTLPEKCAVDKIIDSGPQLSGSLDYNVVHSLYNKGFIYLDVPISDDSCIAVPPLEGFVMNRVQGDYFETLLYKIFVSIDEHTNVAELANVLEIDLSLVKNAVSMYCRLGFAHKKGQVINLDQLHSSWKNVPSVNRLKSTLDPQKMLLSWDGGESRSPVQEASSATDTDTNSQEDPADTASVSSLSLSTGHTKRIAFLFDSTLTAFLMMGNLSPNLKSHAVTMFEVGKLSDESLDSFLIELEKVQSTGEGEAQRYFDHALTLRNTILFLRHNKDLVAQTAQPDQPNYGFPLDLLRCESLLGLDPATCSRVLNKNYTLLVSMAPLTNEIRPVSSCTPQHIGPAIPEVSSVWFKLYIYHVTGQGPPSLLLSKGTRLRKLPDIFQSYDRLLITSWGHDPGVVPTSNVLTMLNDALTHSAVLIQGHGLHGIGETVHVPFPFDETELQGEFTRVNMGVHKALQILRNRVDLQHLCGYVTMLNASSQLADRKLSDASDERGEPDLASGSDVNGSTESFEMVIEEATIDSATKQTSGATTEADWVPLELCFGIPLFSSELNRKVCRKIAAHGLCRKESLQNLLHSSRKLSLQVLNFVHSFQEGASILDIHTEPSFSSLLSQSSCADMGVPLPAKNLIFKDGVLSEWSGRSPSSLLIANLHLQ
UniProt P21333, whole entry, looked up: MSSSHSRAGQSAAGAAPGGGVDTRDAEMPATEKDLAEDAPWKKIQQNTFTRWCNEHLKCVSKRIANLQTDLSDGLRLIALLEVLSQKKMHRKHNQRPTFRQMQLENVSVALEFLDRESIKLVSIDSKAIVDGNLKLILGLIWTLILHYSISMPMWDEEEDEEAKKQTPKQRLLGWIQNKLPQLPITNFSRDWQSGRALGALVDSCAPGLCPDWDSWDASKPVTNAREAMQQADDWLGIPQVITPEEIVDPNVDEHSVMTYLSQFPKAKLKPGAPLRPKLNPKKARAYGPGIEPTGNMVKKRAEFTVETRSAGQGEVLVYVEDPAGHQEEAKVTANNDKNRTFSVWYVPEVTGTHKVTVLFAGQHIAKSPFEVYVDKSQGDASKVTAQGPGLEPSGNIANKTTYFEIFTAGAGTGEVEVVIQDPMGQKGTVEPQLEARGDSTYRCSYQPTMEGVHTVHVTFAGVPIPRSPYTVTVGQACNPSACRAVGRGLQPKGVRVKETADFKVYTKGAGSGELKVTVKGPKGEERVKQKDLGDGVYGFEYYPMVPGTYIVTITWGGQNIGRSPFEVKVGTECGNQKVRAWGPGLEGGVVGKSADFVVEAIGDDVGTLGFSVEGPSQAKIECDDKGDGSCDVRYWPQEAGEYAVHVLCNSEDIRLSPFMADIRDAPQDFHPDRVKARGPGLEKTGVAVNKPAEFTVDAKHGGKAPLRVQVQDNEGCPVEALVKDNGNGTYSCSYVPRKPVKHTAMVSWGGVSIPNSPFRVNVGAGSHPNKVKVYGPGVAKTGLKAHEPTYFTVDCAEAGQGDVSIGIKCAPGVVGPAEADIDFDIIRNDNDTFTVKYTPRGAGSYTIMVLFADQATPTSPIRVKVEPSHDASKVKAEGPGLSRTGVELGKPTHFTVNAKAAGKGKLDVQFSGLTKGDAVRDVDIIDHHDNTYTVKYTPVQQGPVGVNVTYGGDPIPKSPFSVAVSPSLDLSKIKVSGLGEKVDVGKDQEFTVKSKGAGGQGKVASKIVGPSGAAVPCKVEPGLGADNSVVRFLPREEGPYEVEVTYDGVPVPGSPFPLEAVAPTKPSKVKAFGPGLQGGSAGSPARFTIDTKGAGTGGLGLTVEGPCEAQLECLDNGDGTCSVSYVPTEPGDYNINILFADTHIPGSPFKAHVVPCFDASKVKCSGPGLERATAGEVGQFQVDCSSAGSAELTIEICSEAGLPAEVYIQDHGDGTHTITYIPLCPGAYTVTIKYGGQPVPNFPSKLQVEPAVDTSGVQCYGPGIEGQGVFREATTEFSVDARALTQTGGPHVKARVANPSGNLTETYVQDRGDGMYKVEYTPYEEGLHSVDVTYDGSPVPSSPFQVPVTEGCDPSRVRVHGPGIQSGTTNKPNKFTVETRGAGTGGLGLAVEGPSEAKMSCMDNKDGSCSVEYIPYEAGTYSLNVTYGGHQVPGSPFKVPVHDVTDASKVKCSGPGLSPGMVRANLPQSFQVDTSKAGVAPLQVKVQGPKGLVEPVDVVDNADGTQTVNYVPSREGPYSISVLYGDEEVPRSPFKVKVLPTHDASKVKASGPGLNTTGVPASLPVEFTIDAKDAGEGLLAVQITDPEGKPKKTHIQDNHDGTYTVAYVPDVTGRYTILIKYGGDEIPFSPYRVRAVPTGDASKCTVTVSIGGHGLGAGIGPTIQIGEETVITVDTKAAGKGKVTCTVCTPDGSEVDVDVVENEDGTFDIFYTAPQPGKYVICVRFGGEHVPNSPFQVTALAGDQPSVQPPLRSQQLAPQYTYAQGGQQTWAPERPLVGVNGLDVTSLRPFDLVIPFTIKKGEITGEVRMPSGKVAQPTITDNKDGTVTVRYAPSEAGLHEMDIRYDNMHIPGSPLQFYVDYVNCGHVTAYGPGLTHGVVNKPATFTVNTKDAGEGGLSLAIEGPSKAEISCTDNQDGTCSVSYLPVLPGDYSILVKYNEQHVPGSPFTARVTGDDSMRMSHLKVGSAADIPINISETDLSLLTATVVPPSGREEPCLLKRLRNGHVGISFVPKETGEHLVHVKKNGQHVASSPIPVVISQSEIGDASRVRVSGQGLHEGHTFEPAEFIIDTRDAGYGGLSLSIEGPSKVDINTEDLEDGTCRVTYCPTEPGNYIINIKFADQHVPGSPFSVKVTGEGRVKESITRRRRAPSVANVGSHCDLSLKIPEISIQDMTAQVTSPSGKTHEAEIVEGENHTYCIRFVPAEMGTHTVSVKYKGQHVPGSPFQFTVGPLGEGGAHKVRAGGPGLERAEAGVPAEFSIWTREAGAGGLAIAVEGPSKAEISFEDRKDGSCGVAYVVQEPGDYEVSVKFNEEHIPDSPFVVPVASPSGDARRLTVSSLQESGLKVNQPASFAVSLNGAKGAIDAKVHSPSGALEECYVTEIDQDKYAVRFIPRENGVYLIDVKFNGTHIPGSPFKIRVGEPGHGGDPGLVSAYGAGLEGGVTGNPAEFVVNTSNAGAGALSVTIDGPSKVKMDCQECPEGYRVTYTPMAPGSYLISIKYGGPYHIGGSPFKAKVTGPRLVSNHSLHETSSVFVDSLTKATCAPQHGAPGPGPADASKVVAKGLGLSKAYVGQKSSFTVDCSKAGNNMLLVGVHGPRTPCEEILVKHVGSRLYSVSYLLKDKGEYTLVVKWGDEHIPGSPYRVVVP
UniProt Q5T0N5: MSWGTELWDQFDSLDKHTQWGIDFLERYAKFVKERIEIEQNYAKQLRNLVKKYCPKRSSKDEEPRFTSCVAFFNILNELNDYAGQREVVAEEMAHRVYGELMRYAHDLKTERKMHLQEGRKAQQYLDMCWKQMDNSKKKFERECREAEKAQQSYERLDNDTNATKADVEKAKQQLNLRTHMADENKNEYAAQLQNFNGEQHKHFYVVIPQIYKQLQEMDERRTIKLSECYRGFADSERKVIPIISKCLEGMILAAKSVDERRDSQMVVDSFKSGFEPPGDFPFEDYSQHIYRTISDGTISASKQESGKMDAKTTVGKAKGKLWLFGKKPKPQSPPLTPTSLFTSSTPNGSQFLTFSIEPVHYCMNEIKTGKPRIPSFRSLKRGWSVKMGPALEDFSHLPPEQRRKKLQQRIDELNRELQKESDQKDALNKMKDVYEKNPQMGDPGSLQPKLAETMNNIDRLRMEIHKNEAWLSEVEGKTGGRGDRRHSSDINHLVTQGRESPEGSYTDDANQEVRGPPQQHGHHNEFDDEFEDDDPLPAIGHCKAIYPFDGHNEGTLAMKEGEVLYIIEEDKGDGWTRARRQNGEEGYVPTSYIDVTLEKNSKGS

[2] = compound: CON(C)C(=O)N1N=C(c2cc(F)ccc2F)S[C@@]1(CCCN)c1ccccc1 [filanesib]
Procedure, shortened: as §1

[3] = compound: CO[C@H]1C[C@@H]2CC[C@@H](C)[C@@](O)(O2)C(=O)C(=O)N2CCCC[C@H]2C(=O)O[C@H]([C@H](C)C[C@@H]2CC[C@H](n3cnnn3)[C@H](OC)C2)CC(=O)[C@H](C)/C=C(\C)[C@@H](O)[C@@H](OC)C(=O)[C@H](C)C[C@H](C)/C=C/C=C/C=C/1C [zotarolimus]
Procedure, shortened: as §1

[4] = compound: COc1cc(C(=O)O)ccc1NC(=O)[C@@H]1N[C@@H](CC(C)(C)C)[C@](C#N)(c2ccc(Cl)cc2F)[C@H]1c1cccc(Cl)c1F [idasanutlin]
Procedure, shortened: as §1

[5] = compound: COc1cc(Nc2ncc3c(n2)-c2ccc(Cl)cc2C(c2c(F)cccc2OC)=NC3)ccc1C(=O)O [alisertib]
Procedure, shortened: as §1

[6] = compound: COc1cc2nc(-c3cc(F)ccc3O)nc(N[C@@H]3CNC[C@H]3C(C)(C)O)c2cc1OC
Procedure, shortened: as §1

[7] = compound: COc1cc2ncnc(Nc3ccc(F)c(Cl)c3)c2cc1OCCCN1CCOCC1 [gefitinib]
Procedure, shortened: as §1

[8] = compound: COc1cccc2cc(-c3nc([C@H]4CC[C@H](C(=O)O)CC4)n4ncnc(N)c34)[nH]c12
Procedure, shortened: as §1

[9] = compound: CS(=O)(=O)CCNCc1ccc(-c2ccc3ncnc(Nc4ccc(OCc5cccc(F)c5)c(Cl)c4)c3c2)o1 [lapatinib]
Procedure, shortened: as §1

[10] = compound: CS(=O)(=O)N1CCN(Cc2cc3nc(-c4cccc5[nH]ncc45)nc(N4CCOCC4)c3s2)CC1 [pictilisib]
Procedure, shortened: as §1

[11] = compound: CS(=O)(=O)c1ccc(-c2cnc(N)c(C(=O)Nc3ccccc3)n2)cc1
Procedure, shortened: as §1

[12] = compound: C[C@@H](Oc1cc(-c2cnn(C3CCNCC3)c2)cnc1N)c1c(Cl)ccc(F)c1Cl [crizotinib]
Procedure, shortened: as §1

[13] = compound: C[C@@H]1COCCN1C2=NC(=NC(=C2)C3(CC3)S(=O)(=O)C)C4=C5C=CNC5=CC=C4
Procedure, shortened: as §1

[14] = compound: C[C@H](C1=CC=C(C=C1)C(=O)NC2=C3C=CNC3=NC=C2)N
Procedure, shortened: as §1

[15] = compound: Cc1cc(Nc2cc(CN3CCOCC3)c3nc(C)c(Cc4ccc(Cl)cc4F)n3n2)n[nH]1 [gandotinib]
Procedure, shortened: as §1

[16] = compound: Cc1cc(SCc2sc(-c3ccc(C(F)(F)F)cc3)nc2C)ccc1OCC(=O)O
Procedure, shortened: as §1

[17] = compound: Cc1ccc(-n2nc(C(C)(C)C)cc2NC(=O)Nc2ccc(OCCN3CCOCC3)c3ccccc23)cc1 [doramapimod]
Procedure, shortened: as §1

[18] = compound: Cc1ccc(C(=O)N(CCCN)[C@@H](c2nc3cc(Cl)ccc3c(=O)n2Cc2ccccc2)C(C)C)cc1 [ispinesib]
Procedure, shortened: as §1

[19] = compound: C[C@H](Nc1ncnc2nc[nH]c12)c1cc2cccc(Cl)c2c(=O)n1-c1ccccc1 [duvelisib]
Procedure, shortened: as §1

[20] = compound: Cc1cc(Nc2cc(N3CCN(C)CC3)nc(Sc3ccc(NC(=O)C4CC4)cc3)n2)n[nH]1 [tozasertib]
Procedure, shortened: as §1

Measured: log2 fold change

FIS1 (UniProt Q9Y3D6)
active: [14] -0.286
inactive: [1] -0.016 | [2] -0.008 | [3] 0.153 | [4] -0.047 | [5] -0.034 | [6] 0.061 | [7] -0.025 | [8] 0.069 | [9] 0.008 | [10] 0.071 | [11] -0.017 | [12] 0.045 | [13] 0.037 | [15] 0.032 | [16] 0.071 | [17] 0.02 | [18] -0.007

FEN1 (UniProt P39748)
inactive: [1] 0.06 | [2] -0.215 | [3] 0.027 | [4] -0.099 | [5] 0.019 | [6] 0.039 | [7] -0.029 | [8] 0.096 | [9] -0.098 | [10] -0.005 | [11] 0.018 | [13] 0.367 | [14] -0.018 | [15] -0.162 | [16] 0.177 | [17] -0.065 | [18] -0.126
active: [12] -0.488

FKBP3 (UniProt Q00688)
active: [3] 0.354
inactive: [1] 0.219 | [2] -0.04 | [4] -0.015 | [5] -0.052 | [6] 0.047 | [7] -0.023 | [8] 0 | [9] -0.029 | [10] 0.004 | [11] -0.02 | [12] 0.017 | [13] 0.074 | [14] -0.076 | [15] -0.024 | [16] -0.006 | [17] 0 | [18] 0.019

FBXO30 (UniProt Q8TB52)
inactive: [1] -0.04 | [2] -0.064 | [3] -0.039 | [4] -0.01 | [5] 0.017 | [6] -0.015 | [7] -0.035 | [8] 0.007 | [9] 0.011 | [10] -0.082 | [11] 0.032 | [12] -0.088 | [13] 0.151 | [14] -0.053 | [19] 0.014 | [15] -0.037 | [20] -0.004 | [16] 0.007 | [17] -0.003 | [18] 0.017

FKBP7 (UniProt Q9Y680)
inactive: [1] -0.152 | [2] -0.036 | [3] -0.029 | [4] 0.047 | [5] -0.063 | [6] 0.047 | [7] 0.086 | [8] 0.003 | [9] -0.065 | [10] -0.007 | [11] 0.052 | [12] 0.094 | [13] 0.003 | [14] 0.114 | [15] 0.114 | [16] 0.005 | [17] -0.023 | [18] 0.044

FLOT1 (UniProt O75955)
inactive: [1] -0.09 | [2] 0.104 | [3] 0.053 | [4] 0.095 | [5] -0.226 | [6] -0.113 | [7] 0.014 | [8] -0.311 | [9] 0.078 | [10] -0.079 | [11] 0.191 | [12] 0.042 | [13] -0.354 | [14] 0.413 | [19] -0.09 | [15] 0.157 | [20] 0.091 | [16] 0.191 | [17] 0.12 | [18] -0.225

FKBP1A (UniProt P62942)
inactive: [1] -0.009 | [2] -0.052 | [3] 0.189 | [4] -0.09 | [5] -0.073 | [6] 0.119 | [7] -0.027 | [8] -0.004 | [9] -0.032 | [10] 0.387 | [11] -0.015 | [12] -0.002 | [13] 0.198 | [14] -0.106 | [19] 0.238 | [15] -0.037 | [20] 0.029 | [16] 0.17 | [17] 0.07 | [18] 0.004

FH (UniProt P07954)
inactive: [1] 0.002 | [2] -0.141 | [3] 0.013 | [4] -0.047 | [5] -0.042 | [6] 0.02 | [7] 0 | [8] 0.031 | [9] -0.02 | [10] 0.01 | [11] 0.011 | [12] -0.014 | [13] 0.05 | [14] -0.056 | [19] 0.028 | [15] -0.003 | [20] -0.035 | [16] 0.026 | [17] 0.01 | [18] 0.08

FASN (UniProt P49327)
inactive: [1] 0.068 | [2] -0.094 | [3] 0.033 | [4] -0.082 | [5] -0.066 | [6] 0.01 | [7] -0.014 | [8] 0.005 | [9] 0.017 | [10] 0.018 | [11] 0.125 | [12] -0.023 | [13] 0.053 | [14] -0.051 | [19] 0.004 | [15] -0.082 | [20] 0.016 | [16] 0.03 | [17] 0.003 | [18] 0.057

Taken from above (2 entries):
FBXO30 (UniProt Q8TB52)
inactive: [1] -0.04 | [2] -0.064 | [3] -0.039 | [4] -0.01 | [5] 0.017 | [6] -0.015 | [7] -0.035 | [8] 0.007 | [9] 0.011 | [10] -0.082 | [11] 0.032 | [12] -0.088 | [13] 0.151 | [14] -0.053 | [19] 0.014 | [15] -0.037 | [20] -0.004 | [16] 0.007 | [17] -0.003 | [18] 0.017

FKBP7 (UniProt Q9Y680)
inactive: [1] -0.152 | [2] -0.036 | [3] -0.029 | [4] 0.047 | [5] -0.063 | [6] 0.047 | [7] 0.086 | [8] 0.003 | [9] -0.065 | [10] -0.007 | [11] 0.052 | [12] 0.094 | [13] 0.003 | [14] 0.114 | [15] 0.114 | [16] 0.005 | [17] -0.023 | [18] 0.044

(list continues)

FLVCR1 (UniProt Q9Y5Y0)
inactive: [1] -0.025 | [2] 0.093 | [3] -0.161 | [4] -0.028 | [5] -0.008 | [6] 0.019 | [7] -0.022 | [8] 0.037 | [9] -0.096 | [10] 0.117 | [11] -0.039 | [12] 0.066 | [13] 0.117 | [14] -0.007 | [19] 0.097 | [15] 0.013 | [20] -0.049 | [16] -0.15 | [17] 0.013 | [18] -0.003

FCHO2 (UniProt Q0JRZ9)
inactive: [1] -0.082 | [2] 0.043 | [3] 0.034 | [4] -0.002 | [5] -0.075 | [6] 0.036 | [7] 0.106 | [8] 0.114 | [9] 0 | [10] -0.034 | [11] 0.012 | [12] 0.057 | [13] 0.008 | [14] -0.073 | [19] -0.067 | [15] -0.158 | [20] 0.235 | [16] 0.058 | [17] 0.02 | [18] 0.027

FLII (UniProt Q13045)
inactive: [1] 0.016 | [2] 0 | [3] 0.013 | [4] -0.01 | [5] 0.002 | [6] 0.034 | [7] 0.005 | [8] -0.007 | [9] 0.009 | [10] 0.048 | [11] 0.048 | [12] -0.011 | [13] 0.035 | [14] 0.03 | [19] 0.027 | [15] -0.022 | [20] 0.032 | [16] 0.018 | [17] -0.018 | [18] 0.027

FBXO6 (UniProt Q9NRD1)
inactive: [1] -0.016 | [2] 0.008 | [3] 0.044 | [4] -0.17 | [5] -0.043 | [6] 0.022 | [7] 0.059 | [8] 0.038 | [9] 0.026 | [10] -0.091 | [11] 0.035 | [13] 0.052 | [14] -0.082 | [15] 0.088 | [16] 0.036 | [17] -0.049
active: [12] 0.475 | [18] 0.39

FAM91A1 (UniProt Q658Y4)
inactive: [1] -0.081 | [2] -0.059 | [3] 0.029 | [4] -0.044 | [5] -0.076 | [6] -0.003 | [7] -0.013 | [8] 0.035 | [9] 0.045 | [10] -0.047 | [11] -0.11 | [12] -0.006 | [13] 0.192 | [14] -0.034 | [15] -0.08 | [16] -0.001 | [17] -0.012 | [18] 0.014

FERMT2 isoform 3 (UniProt Q96AC1)
inactive: [1] -0.761 | [2] 0.171 | [3] 0.048 | [5] 0.187 | [6] 0.116 | [7] -0.032 | [8] -0.206 | [9] 0.062 | [10] -0.203 | [11] -0.005 | [12] -0.177 | [13] 0.008 | [14] 0.143 | [19] 0.115 | [15] 0.308 | [20] 0.177 | [16] 0.048 | [17] 0.651 | [18] 0.006

FLNA (UniProt P21333)
inactive: [1] 0.042 | [2] 0.026 | [3] 0.043 | [4] -0.066 | [5] 0.036 | [6] 0.039 | [7] 0.03 | [8] -0.095 | [9] -0.049 | [10] 0.031 | [11] 0.014 | [12] -0.078 | [13] -0.01 | [14] 0.04 | [15] -0.045 | [16] 0.127 | [17] -0.013 | [18] -0.025

FNBP1L (UniProt Q5T0N5)
inactive: [1] -0.054 | [2] 0.025 | [3] -0.038 | [4] 0.074 | [5] 0.134 | [6] 0.082 | [7] -0.024 | [8] -0.007 | [9] -0.02 | [10] 0.086 | [11] 0.199 | [12] -0.031 | [14] -0.039 | [19] 0.151 | [15] 0.075 | [20] -0.084 | [16] 0.011 | [17] 0.017 | [18] 0.013
